To fix the notation:
T1: Buc-GFP (Bucky ball fused to eGFP), from transgenic zebrafish (zebrafish) (UniProt H0WFA5)
T1 sequence: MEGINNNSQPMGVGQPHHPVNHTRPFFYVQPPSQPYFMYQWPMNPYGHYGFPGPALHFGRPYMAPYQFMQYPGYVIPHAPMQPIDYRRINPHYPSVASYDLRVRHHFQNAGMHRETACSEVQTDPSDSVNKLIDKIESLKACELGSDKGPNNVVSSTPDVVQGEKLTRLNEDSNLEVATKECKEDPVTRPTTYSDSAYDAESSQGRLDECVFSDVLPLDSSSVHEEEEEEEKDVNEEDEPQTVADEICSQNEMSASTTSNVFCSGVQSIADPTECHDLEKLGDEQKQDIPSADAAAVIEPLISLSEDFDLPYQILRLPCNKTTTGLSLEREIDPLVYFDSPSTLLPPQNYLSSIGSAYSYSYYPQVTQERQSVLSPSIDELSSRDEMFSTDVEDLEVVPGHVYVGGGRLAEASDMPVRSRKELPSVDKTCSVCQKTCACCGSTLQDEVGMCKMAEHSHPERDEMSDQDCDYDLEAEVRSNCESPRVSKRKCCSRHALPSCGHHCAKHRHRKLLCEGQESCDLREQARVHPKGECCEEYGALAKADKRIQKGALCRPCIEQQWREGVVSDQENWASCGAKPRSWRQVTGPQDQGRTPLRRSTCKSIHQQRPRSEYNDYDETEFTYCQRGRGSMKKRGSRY

B1: Ziwi (piwil1), endogenous in zebrafish embryos (protein, UniProt Q8UVX0 1-858)
chain: MTGRARARSRGRGRGQEPAAPGAQPPVSQEAAKPVVSTPSEGQLVGRGRQKPAPGAMSEEAMLQISAGFQQVKIGERGGRRRDFHDSGVHTRQLMEHVKESKTGVSGTAIELRANFMRLLSRPMWALYQYHVDYKPPMESRRLRSALLFQHEETLGKAHTFDGAILFLPNKLRNAETVLCSETRNGEKVEITVTLTNELPPSSPVCLQFYNILFRRILRILNMQQIGRHYYNPDDPFNIPQHRLTIWPGFMTTILQYESSIMLCSDVSHKVLRSETVLDFMYSLRQQCGDQRFPEACTKELVGLIILTKYNNKTYRIDDIAWDHTPNNTFKKGDTEISFKNYFKSQYGLDITDGNQVLLVSHVKRLGPSGRPPPGPAMLVPEFCYLTGLTDKMRADFNIMKDLASHTRLSPEQREGRINRLISNINRNGDVQNELTTWGLSFENKLLSLNGRVLPSERIIQGGRAFEYNPWTADWSKEMRGLPLISCMSLDNWLMFYTRRNADVAQSLLQTLNKVSGPMGIRMQRAVMIEYEDRQESLLRALQQNVARETQMVVVILPTNRKDKYDCVKKYLCVDCPTPSQCVVSRTISKPQALMTVATKIALQMNCKMGGELWSVEIPLRQLMIVGIDCYHDTAAGKRSIGAMVASLNQGMSRWFSKCVLQNRGQEIIDALKGSLQGALKAYLKYNNSLPSRIIVYRDGVGDGMLQSVVDYEVPQIMQSIKTMGQDYEPKLSVVVVKKRISSRFFARIDGKIANPPPGTVIDTEVTRPEWYDFFIVSQAVRFGCVAPTHYNVVFDNSGLKPDHMQRLTYKLCHMYYNWQGIVRVPAPCQYAHKLAFLVGQSIHKEPNMNLDDFLYYL
B2: Vasa (Ddx4), endogenous in zebrafish embryos (protein, UniProt O42107 1-716)
chain: MDDWEEDQSPVVSCSSGFGLGSNGSDGGFKSFYTGGAGNDKSNSEGTEGSSWKMTGDSFRGRGGRGGSRGGRGGFSGFKSEIDENGSDGGWNGGESRGRGRGGFRGGFRSGSRDENDENRNDDGWKGGESRGRGRGGFGGSFRGGFRDGGNEDTGRRGFGRENNENGNDEGGEGRGRGRGGFRGGFRDGGGDESGKRGFGRGGFRGRNEEVFSKVTTADKLDQEGSENAGPKVVYVPPPPPEEESSIFSHYATGINFDKYDDILVDVSGSNPPKAIMTFEEAGLCDSLSKNVSKSGYVKPTPVQKHGIPIISAGRDLMACAQTGSGKTAAFLLPILQRFMTDGVAASKFSEIQEPEAIIVAPTRELINQIYLEARKFAYGTCVRPVVVYGGINTGYTIREVLKGCNVLCATPGRLHDLIGRGKIGLSKVRYLVLDEADRMLDMGFEPEMRKLVASPGMPSKEERQTLMFSATYPEDIQRMAADFLKVDYIFLAVGVVGGACSDVEQTVVQVDQYSKRDQLLELLRATGNERTMVFVETKRSADFIATFLCQEKISTTSIHGDREQREREKALSDFRLGHCPVLVATSVAARGLDIEQVQHVVNFDMPSSIDEYVHRIGRTGRCGNTGRAVSFFNPESDTPLARSLVKVLSGAQQVVPKWLEEVAFSAHGTTGFNPRGKVFASTDSRKGGSFKSDEPPPSQTSAPSAAAAADDEEWE
B3: Valois homolog (Wdr77/Mep50), endogenous in zebrafish embryos (protein, UniProt Q7SZR9 1-319)
chain: MLKENPWNIPVTAPACMDKHLDAIDYRKDGVLLLAASSLSGRCWQGSLWVYSDPKLAPSEGFCRAGVQTEAGVSDVHWISDRALLLASDSGSVELWDLAEDERLLVNRFSRQEHGDVVTGVSACVGGRTAVSCSADCRIKVWDLNQETVINSYNAHSQPVSGVSCSPVDEFLFLSCAQDGRLLLWDQRKDKPATRIDVQSPSCSPTAVVWHPQHSSTIAYGDELGRVTVKDLKASDGVKTTHTHRRRVNRLAYSDDSAALLASISDDCSVAVHTAELREIFRDRRHQDFVRGVCWSPGGSSALTTVGWDHQVLHHTPEH

These are yes or no findings as the source states them, for the method shown. In cells and extracts the contact can be indirect. These calls come from enrichment with a bait or labelling near it, and not all partners need be listed. No binding means not detected with the bait. Sequences can lack the tags named with a protein.

This test deals with T1, Buc-GFP (Bucky ball fused to eGFP), from transgenic zebrafish (zebrafish). Nature of the test: affinity purification with mass spectrometry; Buc-GFP held on GFP-Trap magnetic beads from extracts of Buc-GFP transgenic zebrafish embryos; GFP-control samples; lysis buffer 10 mM Tris pH 7.5, 150 mM NaCl, 0.5 mM EDTA, 0.5% NP-40.
Consider B1, for which the binding result is reported as “no binding”.
Turning to B2, the binding result is listed as “binds”.
For the molecule B3, the binding entry was “binds”.

These data come from article PMC6219760.
